Data reported in paper doi:10.1101/2025.05.13.653700.
Results are given in words; binding and its absence hold for the method and conditions named. Binding seen in cells or lysates may run through a third protein. A yes stands for co-enrichment or nearness to the bait. Other partners may have been found. A no says only that the protein was not detected with the bait.

Sequences of proteins named here, by UniProt entry; tags and fusion partners are left off.
UniProt Q9C0F3: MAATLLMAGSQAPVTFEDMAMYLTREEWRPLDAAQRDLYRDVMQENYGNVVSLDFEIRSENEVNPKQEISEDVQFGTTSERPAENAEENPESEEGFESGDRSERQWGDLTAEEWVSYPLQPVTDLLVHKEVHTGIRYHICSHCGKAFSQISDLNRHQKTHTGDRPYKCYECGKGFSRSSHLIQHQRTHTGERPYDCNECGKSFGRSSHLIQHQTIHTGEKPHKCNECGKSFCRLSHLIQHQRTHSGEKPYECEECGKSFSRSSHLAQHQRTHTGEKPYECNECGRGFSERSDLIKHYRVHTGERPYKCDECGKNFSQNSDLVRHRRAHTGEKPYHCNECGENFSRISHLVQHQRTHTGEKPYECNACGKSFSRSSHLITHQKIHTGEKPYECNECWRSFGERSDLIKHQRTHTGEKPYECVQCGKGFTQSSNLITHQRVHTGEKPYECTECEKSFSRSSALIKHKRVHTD
UniProt Q13263: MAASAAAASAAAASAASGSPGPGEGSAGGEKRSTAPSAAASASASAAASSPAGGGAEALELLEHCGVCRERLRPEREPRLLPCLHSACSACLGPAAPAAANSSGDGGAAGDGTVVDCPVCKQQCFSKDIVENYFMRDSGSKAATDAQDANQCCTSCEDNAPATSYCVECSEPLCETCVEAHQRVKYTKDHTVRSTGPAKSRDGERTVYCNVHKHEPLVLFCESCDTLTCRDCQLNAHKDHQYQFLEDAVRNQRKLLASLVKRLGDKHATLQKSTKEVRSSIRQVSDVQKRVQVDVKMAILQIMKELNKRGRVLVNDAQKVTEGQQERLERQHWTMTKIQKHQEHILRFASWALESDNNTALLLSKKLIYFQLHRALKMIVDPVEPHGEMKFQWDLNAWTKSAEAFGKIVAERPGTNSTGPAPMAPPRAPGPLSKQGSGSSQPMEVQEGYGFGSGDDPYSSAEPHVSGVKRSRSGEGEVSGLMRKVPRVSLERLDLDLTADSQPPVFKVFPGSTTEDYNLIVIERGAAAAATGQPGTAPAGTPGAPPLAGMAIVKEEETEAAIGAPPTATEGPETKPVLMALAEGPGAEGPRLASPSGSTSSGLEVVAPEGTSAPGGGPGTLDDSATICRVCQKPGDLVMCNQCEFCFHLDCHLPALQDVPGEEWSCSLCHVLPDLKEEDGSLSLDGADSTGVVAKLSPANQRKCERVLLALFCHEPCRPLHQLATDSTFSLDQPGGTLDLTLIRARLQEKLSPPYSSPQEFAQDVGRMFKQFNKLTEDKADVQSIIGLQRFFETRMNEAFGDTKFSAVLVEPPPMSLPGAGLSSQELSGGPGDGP
UniProt Q92785: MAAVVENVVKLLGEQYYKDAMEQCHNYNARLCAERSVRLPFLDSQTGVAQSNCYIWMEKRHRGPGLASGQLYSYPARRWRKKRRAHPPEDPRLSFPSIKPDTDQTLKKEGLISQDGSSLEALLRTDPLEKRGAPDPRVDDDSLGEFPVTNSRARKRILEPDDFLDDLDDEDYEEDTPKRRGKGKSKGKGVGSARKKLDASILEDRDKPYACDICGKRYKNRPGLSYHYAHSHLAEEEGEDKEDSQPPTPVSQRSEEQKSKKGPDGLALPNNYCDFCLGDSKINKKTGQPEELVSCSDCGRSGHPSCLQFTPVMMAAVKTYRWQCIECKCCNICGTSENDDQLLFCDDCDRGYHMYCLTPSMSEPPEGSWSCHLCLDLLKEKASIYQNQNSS
UniProt Q9UPN9: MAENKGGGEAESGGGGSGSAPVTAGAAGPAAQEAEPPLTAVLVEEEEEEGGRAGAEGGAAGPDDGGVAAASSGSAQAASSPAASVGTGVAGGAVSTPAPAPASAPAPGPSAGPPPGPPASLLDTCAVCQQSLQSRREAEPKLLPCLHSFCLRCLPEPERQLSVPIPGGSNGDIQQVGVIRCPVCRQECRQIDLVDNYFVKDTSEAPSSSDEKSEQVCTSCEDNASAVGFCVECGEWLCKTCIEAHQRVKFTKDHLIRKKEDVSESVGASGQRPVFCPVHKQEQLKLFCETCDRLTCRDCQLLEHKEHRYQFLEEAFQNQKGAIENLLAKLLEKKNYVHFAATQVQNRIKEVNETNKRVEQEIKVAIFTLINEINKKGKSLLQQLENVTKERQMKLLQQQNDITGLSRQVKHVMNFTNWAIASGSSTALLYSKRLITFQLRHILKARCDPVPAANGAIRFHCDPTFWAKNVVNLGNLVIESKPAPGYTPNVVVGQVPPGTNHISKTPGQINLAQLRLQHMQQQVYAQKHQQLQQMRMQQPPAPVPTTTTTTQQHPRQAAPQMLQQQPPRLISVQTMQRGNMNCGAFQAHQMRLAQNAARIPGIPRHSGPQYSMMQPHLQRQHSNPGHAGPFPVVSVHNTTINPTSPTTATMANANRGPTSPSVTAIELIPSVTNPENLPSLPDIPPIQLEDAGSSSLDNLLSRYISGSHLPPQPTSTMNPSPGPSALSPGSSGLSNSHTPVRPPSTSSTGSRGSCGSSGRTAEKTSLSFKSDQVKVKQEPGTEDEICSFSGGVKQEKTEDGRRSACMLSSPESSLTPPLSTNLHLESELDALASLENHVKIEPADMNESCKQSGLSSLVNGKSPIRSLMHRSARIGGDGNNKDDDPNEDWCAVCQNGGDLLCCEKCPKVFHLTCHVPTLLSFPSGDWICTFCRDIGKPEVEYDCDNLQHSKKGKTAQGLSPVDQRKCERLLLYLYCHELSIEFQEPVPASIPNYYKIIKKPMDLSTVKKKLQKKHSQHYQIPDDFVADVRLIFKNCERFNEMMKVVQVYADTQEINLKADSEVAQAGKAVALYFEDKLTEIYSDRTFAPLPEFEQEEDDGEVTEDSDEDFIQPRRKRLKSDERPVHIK
UniProt Q9NPI1: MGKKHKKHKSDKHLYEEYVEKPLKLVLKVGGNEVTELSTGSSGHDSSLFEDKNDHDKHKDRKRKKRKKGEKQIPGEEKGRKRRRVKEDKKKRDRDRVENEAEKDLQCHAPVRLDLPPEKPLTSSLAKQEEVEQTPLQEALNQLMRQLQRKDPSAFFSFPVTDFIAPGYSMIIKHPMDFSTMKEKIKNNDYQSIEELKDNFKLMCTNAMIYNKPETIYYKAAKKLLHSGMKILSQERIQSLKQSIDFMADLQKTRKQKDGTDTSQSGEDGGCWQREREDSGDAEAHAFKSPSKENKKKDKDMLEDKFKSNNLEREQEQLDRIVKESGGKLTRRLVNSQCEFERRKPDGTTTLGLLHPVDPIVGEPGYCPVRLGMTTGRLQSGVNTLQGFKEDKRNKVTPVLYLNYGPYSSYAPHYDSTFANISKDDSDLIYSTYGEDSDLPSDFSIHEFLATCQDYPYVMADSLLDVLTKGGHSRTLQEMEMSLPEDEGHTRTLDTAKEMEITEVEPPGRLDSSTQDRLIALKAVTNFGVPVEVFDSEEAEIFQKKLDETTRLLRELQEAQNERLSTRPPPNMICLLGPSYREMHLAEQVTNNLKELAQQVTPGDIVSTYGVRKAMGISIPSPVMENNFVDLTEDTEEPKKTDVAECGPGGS
UniProt Q86U86: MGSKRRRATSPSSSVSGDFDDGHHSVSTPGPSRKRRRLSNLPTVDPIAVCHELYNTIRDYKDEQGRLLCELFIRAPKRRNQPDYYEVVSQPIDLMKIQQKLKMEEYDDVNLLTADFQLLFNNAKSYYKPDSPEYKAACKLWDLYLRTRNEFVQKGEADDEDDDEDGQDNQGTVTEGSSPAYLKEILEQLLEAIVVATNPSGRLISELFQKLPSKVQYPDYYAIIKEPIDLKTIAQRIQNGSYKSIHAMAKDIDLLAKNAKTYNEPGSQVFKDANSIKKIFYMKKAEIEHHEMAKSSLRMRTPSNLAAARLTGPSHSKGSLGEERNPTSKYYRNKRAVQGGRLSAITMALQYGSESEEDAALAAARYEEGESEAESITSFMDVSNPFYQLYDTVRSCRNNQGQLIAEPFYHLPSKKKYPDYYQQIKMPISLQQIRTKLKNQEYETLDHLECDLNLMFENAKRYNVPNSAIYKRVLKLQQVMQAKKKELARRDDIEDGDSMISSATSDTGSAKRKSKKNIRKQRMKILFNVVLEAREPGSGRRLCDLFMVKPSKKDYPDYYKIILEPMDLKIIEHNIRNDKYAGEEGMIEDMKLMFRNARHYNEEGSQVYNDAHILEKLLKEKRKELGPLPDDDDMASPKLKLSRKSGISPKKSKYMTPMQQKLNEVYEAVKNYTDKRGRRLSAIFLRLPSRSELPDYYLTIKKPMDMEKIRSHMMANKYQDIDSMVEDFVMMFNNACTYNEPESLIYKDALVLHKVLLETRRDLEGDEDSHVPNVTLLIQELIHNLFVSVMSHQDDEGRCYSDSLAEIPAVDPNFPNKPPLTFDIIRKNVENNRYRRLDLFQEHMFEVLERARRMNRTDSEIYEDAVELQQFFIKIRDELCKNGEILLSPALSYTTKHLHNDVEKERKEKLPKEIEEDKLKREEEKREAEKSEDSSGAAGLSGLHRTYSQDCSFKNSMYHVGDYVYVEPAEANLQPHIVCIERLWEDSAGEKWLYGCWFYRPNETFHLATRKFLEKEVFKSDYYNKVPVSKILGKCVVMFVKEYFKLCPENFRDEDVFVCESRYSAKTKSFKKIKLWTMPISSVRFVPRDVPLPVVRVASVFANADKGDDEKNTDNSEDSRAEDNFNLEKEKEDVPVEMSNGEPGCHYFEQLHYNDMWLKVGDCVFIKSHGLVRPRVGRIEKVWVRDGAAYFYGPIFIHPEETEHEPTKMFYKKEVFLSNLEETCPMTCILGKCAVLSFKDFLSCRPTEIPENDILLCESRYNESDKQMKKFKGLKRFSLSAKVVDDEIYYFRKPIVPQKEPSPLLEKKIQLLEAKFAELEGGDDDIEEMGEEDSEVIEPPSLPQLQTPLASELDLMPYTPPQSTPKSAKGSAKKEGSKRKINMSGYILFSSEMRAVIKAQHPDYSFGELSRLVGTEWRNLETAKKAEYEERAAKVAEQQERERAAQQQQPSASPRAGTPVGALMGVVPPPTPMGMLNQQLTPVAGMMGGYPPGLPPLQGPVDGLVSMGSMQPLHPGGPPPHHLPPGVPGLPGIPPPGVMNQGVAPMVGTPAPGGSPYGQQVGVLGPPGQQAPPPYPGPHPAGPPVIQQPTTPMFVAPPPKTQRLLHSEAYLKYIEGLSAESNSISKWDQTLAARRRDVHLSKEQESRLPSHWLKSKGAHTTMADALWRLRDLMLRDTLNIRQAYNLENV

B1: TRIM24 (protein, UniProt O15164 1-1050)
chain: MEVAVEKAVAAAAAASAAASGGPSAAPSGENEAESRQGPDSERGGEAARLNLLDTCAVCHQNIQSRAPKLLPCLHSFCQRCLPAPQRYLMLPAPMLGSAETPPPVPAPGSPVSGSSPFATQVGVIRCPVCSQECAERHIIDNFFVKDTTEVPSSTVEKSNQVCTSCEDNAEANGFCVECVEWLCKTCIRAHQRVKFTKDHTVRQKEEVSPEAVGVTSQRPVFCPFHKKEQLKLYCETCDKLTCRDCQLLEHKEHRYQFIEEAFQNQKVIIDTLITKLMEKTKYIKFTGNQIQNRIIEVNQNQKQVEQDIKVAIFTLMVEINKKGKALLHQLESLAKDHRMKLMQQQQEVAGLSKQLEHVMHFSKWAVSSGSSTALLYSKRLITYRLRHLLRARCDASPVTNNTIQFHCDPSFWAQNIINLGSLVIEDKESQPQMPKQNPVVEQNSQPPSGLSSNQLSKFPTQISLAQLRLQHMQQQVMAQRQQVQRRPAPVGLPNPRMQGPIQQPSISHQQPPPRLINFQNHSPKPNGPVLPPHPQQLRYPPNQNIPRQAIKPNPLQMAFLAQQAIKQWQISSGQGTPSTTNSTSSTPSSPTITSAAGYDGKAFGSPMIDLSSPVGGSYNLPSLPDIDCSSTIMLDNIVRKDTNIDHGQPRPPSNRTVQSPNSSVPSPGLAGPVTMTSVHPPIRSPSASSVGSRGSSGSSSKPAGADSTHKVPVVMLEPIRIKQENSGPPENYDFPVVIVKQESDEESRPQNANYPRSILTSLLLNSSQSSTSEETVLRSDAPDSTGDQPGLHQDNSSNGKSEWLDPSQKSPLHVGETRKEDDPNEDWCAVCQNGGELLCCEKCPKVFHLSCHVPTLTNFPSGEWICTFCRDLSKPEVEYDCDAPSHNSEKKKTEGLVKLTPIDKRKCERLLLFLYCHEMSLAFQDPVPLTVPDYYKIIKNPMDLSTIKKRLQEDYSMYSKPEDFVADFRLIFQNCAEFNEPDSEVANAGIKLENYFEELLKNLYPEKRFPKPEFRNESEDNKFSDDSDDDFVQPRKKRLKSIEERQLLK

Columns and labels:
[1] = molecular target: HA-tagged full-length ZNF436 fused to TurboID (ZNF436-TID) (human) (UniProt Q9C0F3); test: proximity labelling
[2] = molecular target: HA-tagged KRAB-deleted ZNF436 fused to TurboID (ΔKRAB-TID) (human); test: proximity labelling

Molecule	binding [1]	binding [2]
TRIM28 (endogenous in cardiomyocytes) (from UniProt Q13263 1-835)	no binding	–
DPF2 (from UniProt Q92785 1-391)	binds	–
TRIM33 (from UniProt Q9UPN9 1-1127)	binds	–
BRD7 (from UniProt Q9NPI1 1-651)	binds	–
PBRM1 (from UniProt Q86U86 1-1689)	binds	–
B1	binds	no binding
